PubChem BioAssay AID651903 (Broad Institute, 2012)
Among all 22,000 compounds or so, about 1,100 (5%) were called active. Inconclusive results, whose numbers are uncertain, are shown with a selection of clear calls. No stated cut-off is given here; in the data, active means activity score above about 55%; inconclusive means no clear call, values can overlap the other calls; inactive means below that.

Assay: inhibitors of intracellular Trypanosoma cruzi, primary screen, cell-based, plate reader, single point, set 2 (AID 651903);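 further: parasites and compound incubated about four days before reading; 0% = median of neutral control wells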
Conditions: intracellular Trypanosoma cruzi in host cells, at 5.01 µM, stronger effect = higher value

SMILES | activity score (inhibition)
C[C@H](CO)N1C[C@H](C)[C@@H](CN(C)C(=O)Nc2ccc(C(F)(F)F)cc2)Oc2c(NS(=O)(=O)c3ccc(Cl)cc3)cccc2C1=O | inconclusive: 55.5%
C[C@@H]1CCCCO[C@@H](CN(C)C(=O)Nc2ccccc2)[C@@H](C)CN([C@H](C)CO)C(=O)c2cc(NC(=O)Nc3ccc(C(F)(F)F)cc3)ccc2O1 | inconclusive: 58.7%
Cc1cccc(CN(C)C[C@@H]2Oc3ncc(-c4ccc(F)cc4)cc3C(=O)N([C@H](C)CO)C[C@@H]2C)c1 | inactive: 33.9%
COc1ccc(CN(C)C[C@@H]2OCCCC[C@@H](C)Oc3ccc(NC(=O)Nc4ccc(OC)cc4)cc3C(=O)N([C@H](C)CO)C[C@@H]2C)cc1 | inconclusive: 57.6%
C[C@H](CO)N1C[C@H](C)[C@@H](CN(C)Cc2ccc(Cl)c(Cl)c2)OCc2cnnn2CCCC1=O | inconclusive: 57.8%
COc1ccc(NC(=O)Nc2ccc3c(c2)CC(=O)N([C@H](C)CO)C[C@@H](C)[C@H](CN(C)Cc2ccc(Cl)c(Cl)c2)O3)cc1 | inconclusive: 56.3%
C[C@H](CO)N1C[C@H](C)[C@@H](CN(C)S(=O)(=O)c2ccc(Cl)cc2)Oc2c(NC(=O)c3cnccn3)cccc2C1=O | inconclusive: 58.3%
COc1cccc(S(=O)(=O)N(C)C[C@@H]2Oc3ncc(/C=C/c4ccccc4)cc3C(=O)N([C@H](C)CO)C[C@@H]2C)c1 | inconclusive: 56.8%
C[C@H](CO)N1C[C@H](C)[C@H](CN(C)Cc2ccc(Oc3ccccc3)cc2)Oc2c(NC(=O)CCCCCC(=O)Nc3ccccc3N)cccc2C1=O | active: 65.5%
COc1ccc(CN(C)C[C@H]2Oc3ccc(NS(=O)(=O)c4ccc(C)cc4)cc3CC(=O)N([C@H](C)CO)C[C@H]2C)cc1 | inconclusive: 59.6%
C[C@@H]1CN([C@@H](C)CO)C(=O)c2cc(NC(=O)Nc3ccc(C(F)(F)F)cc3)ccc2O[C@@H]1CN(C)C(=O)Nc1ccc(C(F)(F)F)cc1 | inconclusive: 55.6%
C[C@H](CO)N1C[C@H](C)[C@@H](CN(C)Cc2ccc(-c3ccccc3)cc2)Oc2ccc(NS(=O)(=O)c3ccccc3)cc2C1=O | active: 41.5%
C[C@@H]1CN([C@H](C)CO)C(=O)c2cc(NC(=O)Nc3ccc4c(c3)OCO4)ccc2O[C@@H]1CN(C)Cc1ccc(-c2ccccc2)cc1 | active: 87.5%
Cc1ccc(S(=O)(=O)Nc2ccc3c(c2)C(=O)N([C@@H](C)CO)C[C@@H](C)[C@H](CN(C)Cc2ccc(-c4ccccc4)cc2)O3)cc1 | inconclusive: 55.5%
C[C@@H]1CN([C@H](C)CO)C(=O)c2cccc(NS(=O)(=O)c3ccc(Cl)cc3)c2O[C@@H]1CN(C)Cc1ccccc1 | inconclusive: 56%
C[C@H](CO)N1C[C@H](C)[C@@H](CN(C)C(=O)Nc2ccc(C(F)(F)F)cc2)Oc2ccc(NC(=O)CCN3CCOCC3)cc2C1=O | inactive: -2.18%
Cc1noc(C)c1S(=O)(=O)N(C)C[C@@H]1Oc2ccc(NC(=O)C3CCCCC3)cc2CC(=O)N([C@H](C)CO)C[C@H]1C | inactive: 3.09%

Pulled one by one from the entries so far, three records:
SMILES | activity score (inhibition)
Cc1cccc(CN(C)C[C@@H]2Oc3ncc(-c4ccc(F)cc4)cc3C(=O)N([C@H](C)CO)C[C@@H]2C)c1 | inactive: 33.9%
C[C@@H]1CCCCO[C@@H](CN(C)C(=O)Nc2ccccc2)[C@@H](C)CN([C@H](C)CO)C(=O)c2cc(NC(=O)Nc3ccc(C(F)(F)F)cc3)ccc2O1 | inconclusive: 58.7%
C[C@@H]1CN([C@@H](C)CO)C(=O)c2cc(NC(=O)Nc3ccc(C(F)(F)F)cc3)ccc2O[C@@H]1CN(C)C(=O)Nc1ccc(C(F)(F)F)cc1 | inconclusive: 55.6%

Going on with the list.

SMILES | activity score (inhibition)
C[C@H]1CN([C@@H](C)CO)C(=O)Cc2cc(NC(=O)Cc3cn(C)c4ccccc34)ccc2O[C@H]1CN(C)Cc1ccc(-c2ccccc2)cc1 | inactive: 42.9%
COc1ccc(S(=O)(=O)Nc2ccc3c(c2)C(=O)N([C@H](C)CO)C[C@@H](C)[C@H](CN(C)C(=O)Nc2ccc(C(F)(F)F)cc2)O3)cc1 | inactive: 7.51%
C[C@@H]1CN([C@H](C)CO)C(=O)Cc2cc(NC(=O)Nc3ccc(F)cc3)ccc2O[C@H]1CN(C)CC1CCCCC1 | active: 59.6%
C[C@@H]1CN([C@H](C)CO)C(=O)c2cc(NS(=O)(=O)c3ccc(Cl)cc3)ccc2O[C@@H]1CN(C)Cc1ccc(Cl)c(Cl)c1 | active: 85.3%
C[C@H]1CN([C@@H](C)CO)C(=O)c2cccc(NC(=O)c3ccncc3)c2O[C@H]1CN(C)Cc1ccc(C(F)(F)F)cc1 | active: 83.7%
CC(C)=CCC[C@@H](C)C/C=N/NC(=O)CCCCCCC(=O)O | inactive: -3.12%
C[C@H](CO)N1C[C@H](C)[C@@H](CN(C)Cc2ccc(Oc3ccccc3)cc2)Oc2c(NC(=O)c3cnccn3)cccc2C1=O | inconclusive: 55.2%
COc1ccc(CN(C)C[C@H]2Oc3ccc(NS(=O)(=O)c4ccc(OC)cc4)cc3CC(=O)N([C@@H](C)CO)C[C@@H]2C)cc1 | inconclusive: 56.8%
COc1ccc(NC(=O)Nc2ccc3c(c2)CC(=O)N([C@@H](C)CO)C[C@@H](C)[C@@H](CN(C)Cc2ccc(Cl)c(Cl)c2)O3)cc1 | inconclusive: 57.8%
C[C@H]1CN([C@@H](C)CO)C(=O)Cc2cc(NC(=O)Nc3cccc4ccccc34)ccc2O[C@@H]1CN(C)Cc1ccc(Oc2ccccc2)cc1 | active: 70.4%
C[C@H](CO)N1C[C@H](C)[C@H](CN(C)C(=O)NC2CCCCC2)Oc2ncc(-c3cc4ccccc4o3)cc2C1=O | inconclusive: 55.1%
C[C@@H]1CN([C@H](C)CO)C(=O)c2cc(NS(=O)(=O)c3ccc(Cl)cc3)ccc2O[C@@H]1CN(C)S(=O)(=O)c1ccc(Cl)cc1 | inconclusive: 56%
C[C@@H]1CCCCO[C@@H](CN(C)Cc2ccc(C(F)(F)F)cc2)[C@@H](C)CN([C@H](C)CO)C(=O)c2cc(NC(=O)C3CCCCC3)ccc2O1 | inconclusive: 56.8%
C[C@@H]1CN([C@H](C)CO)C(=O)c2cccc(NC(=O)c3cnccn3)c2O[C@@H]1CN(C)S(=O)(=O)c1cccs1 | inactive: 5.71%
C[C@H]1CN([C@@H](C)CO)C(=O)Cc2cc(NS(=O)(=O)c3ccc(Cl)cc3)ccc2O[C@@H]1CN(C)Cc1ccc(Oc2ccccc2)cc1 | inconclusive: 56.7%
COc1ccc(NC(=O)Nc2cccc3c2O[C@@H](CN(C)Cc2ccc(Oc4ccccc4)cc2)[C@@H](C)CN([C@@H](C)CO)C3=O)cc1 | inactive: 35.5%
C[C@@H]1CN([C@H](C)CO)C(=O)c2cccc(NC(=O)c3nc4ccccc4s3)c2O[C@H]1CN(C)C(=O)Nc1cccc2ccccc12 | inactive: 9.17%
